Values of other authors in US9382245B2, “Compounds and methods for treating HIV infections” (priority 2013, dated 2016).
Some entries share one result that the patent states for a list of compounds.

Details: literature values for approved drugs; cited from earlier work

**Q.** For Cc1cc(C#N)cc(C)c1Oc1nc(Nc2ccc(C#N)cc2)nc(N)c1Br [etravirine], which aqueous solubility is on record?
**A.** below 1 μg/ml
